The values that follow come from publication PMC10397244.

Results are given in words; binding and its absence hold for the method and conditions named. In cells and extracts the contact can be indirect. Some binding calls cover weakened binding; strength is not graded here. Tags and fused reporters may be left off the sequences shown.

Experiment [1] addresses T1, BIK1-nYFP (Arabidopsis thaliana) (UniProt O48814).
T1 sequence: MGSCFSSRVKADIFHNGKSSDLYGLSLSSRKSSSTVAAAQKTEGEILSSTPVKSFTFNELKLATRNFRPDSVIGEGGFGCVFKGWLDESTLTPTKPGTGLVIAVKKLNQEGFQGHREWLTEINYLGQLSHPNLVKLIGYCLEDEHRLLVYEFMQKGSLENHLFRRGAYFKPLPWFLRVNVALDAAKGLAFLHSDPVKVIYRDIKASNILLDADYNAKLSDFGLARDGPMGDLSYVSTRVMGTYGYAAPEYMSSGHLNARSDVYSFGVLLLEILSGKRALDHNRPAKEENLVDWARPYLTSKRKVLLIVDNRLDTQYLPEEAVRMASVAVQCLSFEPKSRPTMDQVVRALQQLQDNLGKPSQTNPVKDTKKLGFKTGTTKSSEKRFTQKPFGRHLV
As to the kind of experiment: split reporter; BiFC: nYFP and cYFP fusions transfected into Arabidopsis protoplasts, confocal microscopy.

The target of experiment [2] is T2, PBL13-nYFP (Arabidopsis thaliana) (UniProt F4JZW1).
T2 sequence: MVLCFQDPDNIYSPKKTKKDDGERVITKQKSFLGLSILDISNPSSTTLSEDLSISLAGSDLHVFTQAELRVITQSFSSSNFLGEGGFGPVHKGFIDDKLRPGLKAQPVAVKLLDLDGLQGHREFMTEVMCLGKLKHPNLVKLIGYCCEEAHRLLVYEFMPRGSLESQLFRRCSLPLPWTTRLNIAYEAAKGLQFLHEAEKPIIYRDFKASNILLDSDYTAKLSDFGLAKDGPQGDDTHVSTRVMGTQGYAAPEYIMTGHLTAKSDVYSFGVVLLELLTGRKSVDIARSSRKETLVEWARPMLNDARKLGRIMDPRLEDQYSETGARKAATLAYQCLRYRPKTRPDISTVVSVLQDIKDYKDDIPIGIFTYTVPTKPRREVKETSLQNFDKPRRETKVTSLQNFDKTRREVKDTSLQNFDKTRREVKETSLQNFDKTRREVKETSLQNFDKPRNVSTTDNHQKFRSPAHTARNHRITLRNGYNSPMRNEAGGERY
The experiment is described as above.

Experiment [3] addresses T3, PUB25-nYFP (Arabidopsis thaliana) (UniProt Q9LT79).
T3 sequence: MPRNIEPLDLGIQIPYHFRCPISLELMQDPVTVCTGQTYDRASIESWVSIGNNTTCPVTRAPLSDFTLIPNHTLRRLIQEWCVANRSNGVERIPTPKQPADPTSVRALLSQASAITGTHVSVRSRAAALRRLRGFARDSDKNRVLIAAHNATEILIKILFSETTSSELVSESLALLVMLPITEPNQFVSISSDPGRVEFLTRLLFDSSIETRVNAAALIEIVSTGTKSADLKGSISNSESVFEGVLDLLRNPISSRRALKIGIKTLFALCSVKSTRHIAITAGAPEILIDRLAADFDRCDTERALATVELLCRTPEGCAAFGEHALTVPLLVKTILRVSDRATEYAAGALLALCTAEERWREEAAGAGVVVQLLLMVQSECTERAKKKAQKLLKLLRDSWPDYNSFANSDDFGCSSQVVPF
Described as above.

Experiment [4] concerns the target T4, PUB39-nYFP (Arabidopsis thaliana) (UniProt Q9STT1).
T4 sequence: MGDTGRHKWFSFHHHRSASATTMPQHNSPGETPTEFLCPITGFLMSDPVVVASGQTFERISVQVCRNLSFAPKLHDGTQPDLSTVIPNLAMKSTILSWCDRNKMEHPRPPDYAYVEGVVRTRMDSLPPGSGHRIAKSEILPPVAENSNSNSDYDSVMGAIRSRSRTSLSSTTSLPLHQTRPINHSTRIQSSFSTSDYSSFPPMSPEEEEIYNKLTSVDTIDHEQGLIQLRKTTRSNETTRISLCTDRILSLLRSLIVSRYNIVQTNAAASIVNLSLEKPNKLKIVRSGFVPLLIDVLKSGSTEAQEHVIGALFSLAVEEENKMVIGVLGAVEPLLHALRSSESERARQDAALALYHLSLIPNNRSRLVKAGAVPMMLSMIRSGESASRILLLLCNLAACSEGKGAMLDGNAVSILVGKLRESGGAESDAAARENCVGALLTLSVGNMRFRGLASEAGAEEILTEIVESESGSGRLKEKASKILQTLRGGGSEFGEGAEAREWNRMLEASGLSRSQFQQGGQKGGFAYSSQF
The description is as above.

Experiment [5] has as its target T5, BIK1-NLuc (Arabidopsis thaliana) (UniProt O48814).
T5 sequence: T1 sequence
In words: split reporter; split-luciferase complementation; CLuc and NLuc fusions co-infiltrated into N. benthamiana leaves, luminescence two days later; with or without 5 uM flg22 for 30 min.

B1: RGLG1-cYFP (protein, UniProt Q9SS90 1-489)
chain: MGGGNSKEESSSPSSSSWASHQSYPQYGPDSYNYPPPPTYAPAPSPAPAPAPVPAPSPASSYGPQYSQEGYASQPNNPPPPTYAPAPSPASSYGHQYSQEGYASAASQPNYPPPPSQSQVADRKKFDRRYSKISDNYSSLLQVSEALGRAGLESSNLIVGIDFTKSNEWTGAKSFNRKSLHHLSNTPNPYEQAITIIGRTLAAFDEDNLIPCYGFGDASTHDQDVFSFYPEGRFCNGFEEVLARYREIVPQLKLAGPTSFAPIIEMAMTVVEQSSGQYHVLVIIADGQVTRSVDTEHGRLSPQEQKTVDAIVKASTLPLSIVLVGVGDGPWDMMQEFDDNIPARAFDNFQFVNFTEIMSKNKDQSRKETEFALSALMEIPPQYKATIELNLLGVRNGNIPQRIPLPPPVQSGSSFSSSRIPNFEPSVPPYPFESKQMSSADDIQLCPICLSNPKNMAFGCGHQTCCECGPDLKVCPICRAPIQTRIKLY
As for B1, the binding result in experiment [1] was “binds”; in experiment [2], “no binding”; in experiment [3], “binds”; in experiment [4] it was “no binding”.

B2: RGLG1-CLuc (protein, UniProt Q9SS90 1-489)
chain: B1 chain
For the molecule B2, the binding result in experiment [5] is reported as “binds”.
